Values of other authors, collected in patent publication US8992981B2, “Method for producing microparticles and the microparticles” (M Technique Co., Ltd., priority 2007, dated 2015).

Settings: heating to 70° C. or more

solubility in water on heating: about 8 w/v %
SMILES: Nc1nc2c(ncn2COCCO)c(=O)[nH]1 [aciclovir, 9-[(2-hydroxyethoxy)methyl]guanine]
